Test results from article PMC8463608.
These are yes or no findings as the source states them, for the method shown. Binding seen in cells or lysates may run through a third protein. Some results given as binding are weak or reduced against the parent protein; the word gives no strength. For part of these data: Sequences can lack the tags named with a protein.

Chains of the proteins cited; added tags and fusions are not shown. Residues count along the entry.
UniProt Q15848, residues 19-244: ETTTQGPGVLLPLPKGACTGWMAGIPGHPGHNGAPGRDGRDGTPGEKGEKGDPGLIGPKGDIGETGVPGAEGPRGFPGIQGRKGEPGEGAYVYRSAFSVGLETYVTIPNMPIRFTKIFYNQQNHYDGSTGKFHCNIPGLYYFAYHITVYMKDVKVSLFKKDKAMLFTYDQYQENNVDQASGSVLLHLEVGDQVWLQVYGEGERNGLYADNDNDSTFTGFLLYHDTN
UniProt P29844, residues 19-656: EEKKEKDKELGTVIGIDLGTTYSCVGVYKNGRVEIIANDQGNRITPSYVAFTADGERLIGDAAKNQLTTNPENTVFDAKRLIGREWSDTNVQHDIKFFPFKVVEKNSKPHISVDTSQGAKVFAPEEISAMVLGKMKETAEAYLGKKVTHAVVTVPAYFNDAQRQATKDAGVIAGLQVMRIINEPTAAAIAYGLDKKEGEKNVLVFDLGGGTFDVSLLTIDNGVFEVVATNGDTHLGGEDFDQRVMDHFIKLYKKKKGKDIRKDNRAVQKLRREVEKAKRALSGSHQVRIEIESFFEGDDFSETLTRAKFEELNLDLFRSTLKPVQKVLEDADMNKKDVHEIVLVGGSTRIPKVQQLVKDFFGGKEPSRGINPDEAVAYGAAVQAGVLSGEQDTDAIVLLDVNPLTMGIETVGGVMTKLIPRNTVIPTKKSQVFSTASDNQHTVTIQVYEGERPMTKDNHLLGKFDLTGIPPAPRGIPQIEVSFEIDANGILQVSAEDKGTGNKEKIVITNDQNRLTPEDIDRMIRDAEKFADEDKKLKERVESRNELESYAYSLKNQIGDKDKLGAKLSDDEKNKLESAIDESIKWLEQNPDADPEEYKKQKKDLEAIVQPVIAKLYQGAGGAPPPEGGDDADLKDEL

Legend:
[1] = molecular target: T1, Drosophila adiponectin receptor, Myc-tagged (AdipoR-Myc), expressed in S2 cells (Drosophila) (UniProt Q9VCY8); assay: co-IP; AdipoR-Myc, hAdipoQ-Flag and/or Grp78-HA co-transfected in S2 cells (1:1:1, with pAct-GAL4); Myc, HA and Flag IPs, western blot for AdipoR-Myc or Grp78-HA
T1 sequence: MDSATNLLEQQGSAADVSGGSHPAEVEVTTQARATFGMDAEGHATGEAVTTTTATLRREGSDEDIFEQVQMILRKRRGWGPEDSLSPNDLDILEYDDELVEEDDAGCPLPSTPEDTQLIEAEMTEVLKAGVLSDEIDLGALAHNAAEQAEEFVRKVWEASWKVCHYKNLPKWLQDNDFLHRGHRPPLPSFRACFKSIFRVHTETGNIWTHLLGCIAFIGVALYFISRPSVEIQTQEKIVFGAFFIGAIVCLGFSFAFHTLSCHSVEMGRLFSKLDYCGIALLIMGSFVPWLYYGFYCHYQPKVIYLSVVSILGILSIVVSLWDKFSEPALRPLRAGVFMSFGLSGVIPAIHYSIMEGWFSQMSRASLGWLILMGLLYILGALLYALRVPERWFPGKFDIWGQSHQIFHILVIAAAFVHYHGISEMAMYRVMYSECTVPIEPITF

[2] = molecular target: human adiponectin, Flag-tagged (hAdipoQ-Flag), expressed in S2 cells (human) (UniProt Q15848); assay: as above

binding [1]	binding [2]	Substance
binds	binds	glucose-regulated protein 78 (Grp78), HA-tagged, expressed in S2 cells (from UniProt P29844 19-656)
binds	–	human adiponectin, Flag-tagged (hAdipoQ-Flag), expressed in S2 cells (from UniProt Q15848 19-244) (ligand)
